Reference: PMC8117505
Results are given in words; binding and its absence hold for the method and conditions named. Binding seen in cells or lysates may run through a third protein. Some binding calls cover weakened binding; strength is not graded here. Where a sequence is shown, tags or fusion partners need not be part of it.

Protein sequences, listed by entry. Tags and fused reporters are not part of them.
UniProt Q16665: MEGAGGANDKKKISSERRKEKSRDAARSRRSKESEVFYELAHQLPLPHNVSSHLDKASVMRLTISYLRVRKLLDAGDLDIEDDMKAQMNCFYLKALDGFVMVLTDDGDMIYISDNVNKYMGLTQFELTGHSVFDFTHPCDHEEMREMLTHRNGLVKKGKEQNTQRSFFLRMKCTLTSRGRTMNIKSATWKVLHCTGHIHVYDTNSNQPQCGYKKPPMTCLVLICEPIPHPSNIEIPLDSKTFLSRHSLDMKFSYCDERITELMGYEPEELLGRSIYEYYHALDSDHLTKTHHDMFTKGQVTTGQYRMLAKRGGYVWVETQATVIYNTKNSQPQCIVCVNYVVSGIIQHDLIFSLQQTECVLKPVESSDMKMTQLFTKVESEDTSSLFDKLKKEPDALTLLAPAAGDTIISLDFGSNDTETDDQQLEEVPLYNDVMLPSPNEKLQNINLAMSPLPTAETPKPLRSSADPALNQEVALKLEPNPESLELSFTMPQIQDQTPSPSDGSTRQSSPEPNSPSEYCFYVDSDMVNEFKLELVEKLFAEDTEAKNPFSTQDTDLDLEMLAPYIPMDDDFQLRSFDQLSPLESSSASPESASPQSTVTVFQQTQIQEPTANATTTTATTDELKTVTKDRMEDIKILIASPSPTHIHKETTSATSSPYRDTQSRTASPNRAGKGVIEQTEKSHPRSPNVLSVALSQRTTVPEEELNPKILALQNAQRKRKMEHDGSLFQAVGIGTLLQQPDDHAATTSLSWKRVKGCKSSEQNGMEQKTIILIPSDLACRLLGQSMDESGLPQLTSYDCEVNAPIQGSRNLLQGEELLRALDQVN
UniProt P27540: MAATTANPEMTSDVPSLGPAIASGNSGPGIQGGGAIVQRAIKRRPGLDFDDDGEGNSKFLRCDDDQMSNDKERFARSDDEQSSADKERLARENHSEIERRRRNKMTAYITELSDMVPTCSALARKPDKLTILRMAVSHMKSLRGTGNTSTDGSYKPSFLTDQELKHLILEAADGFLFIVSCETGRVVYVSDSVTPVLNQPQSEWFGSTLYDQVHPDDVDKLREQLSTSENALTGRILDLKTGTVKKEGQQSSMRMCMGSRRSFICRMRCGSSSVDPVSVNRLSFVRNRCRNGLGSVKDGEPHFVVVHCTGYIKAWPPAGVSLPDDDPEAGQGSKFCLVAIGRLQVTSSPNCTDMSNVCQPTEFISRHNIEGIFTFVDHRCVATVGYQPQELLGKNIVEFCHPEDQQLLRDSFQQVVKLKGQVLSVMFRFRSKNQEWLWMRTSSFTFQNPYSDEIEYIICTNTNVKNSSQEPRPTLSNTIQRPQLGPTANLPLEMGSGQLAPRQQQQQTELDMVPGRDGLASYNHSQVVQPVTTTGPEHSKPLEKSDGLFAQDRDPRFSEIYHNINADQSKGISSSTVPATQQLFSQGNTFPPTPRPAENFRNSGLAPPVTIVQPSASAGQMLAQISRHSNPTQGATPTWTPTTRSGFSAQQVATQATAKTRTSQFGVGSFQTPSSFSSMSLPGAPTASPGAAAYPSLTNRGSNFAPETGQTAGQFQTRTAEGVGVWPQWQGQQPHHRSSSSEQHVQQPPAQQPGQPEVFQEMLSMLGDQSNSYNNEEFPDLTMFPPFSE

Target: T1, GST-ATF5 (UniProt Q9Y2D1)
T1 sequence: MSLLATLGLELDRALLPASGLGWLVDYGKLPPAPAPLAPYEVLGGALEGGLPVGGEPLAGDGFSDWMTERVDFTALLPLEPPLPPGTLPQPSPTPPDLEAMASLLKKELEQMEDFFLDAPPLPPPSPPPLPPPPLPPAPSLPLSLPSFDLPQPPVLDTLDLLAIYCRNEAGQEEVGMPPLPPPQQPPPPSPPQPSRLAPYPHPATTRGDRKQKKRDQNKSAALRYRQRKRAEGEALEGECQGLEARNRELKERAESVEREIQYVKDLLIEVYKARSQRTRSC
Test: pull-down; GST-ATF5 on GST beads incubated with in vitro-transcribed/translated proteins, washed five times, western blot; only the target purified

binding | Substance
binds | HIF1α (in vitro-transcribed/translated) (from UniProt Q16665 1-826)
no binding | HIF1β (in vitro-transcribed/translated) (from UniProt P27540 1-789)
